# Reference: the supplement of paper PMC8728848
# Some of the results follow.
# B1: B3GalT2 (Rattus norvegicus) (protein)
# chain: LMLQWRRRHCCFAKMSWNAKRSLFRTHLMGVLSLVFLFAMFLFFNHHDWLPGRPGFKENPVTYTFRGFRSTKTETNQSSLRNIWKEVVPQTLRPQTATNSNNTELSPQGVTGLENTLSANGSIYNEKGTGHPNSYHFKYIINEPEKCQEKSPFLILLIAAEPGQIEARRAIRQTWGNETLAPGIQITRIFLLGISIKLNGYLQHAIQEESIQYHDIIQQEYLDTYYNLTIKTLMGMNWVATYCPHTPYVMKTDSDMFVNTEYLIHKLLKPDLPPRHNYFTGYLMRGYAPNRNKDSKWYMPPDLYPSERYPVFCSGTGYVFSGDLAEKIFKVSLGIRRLHLEDVYVGICLAKLRVDPVPPPNEFVFNHWRVSYSSCKYSHLITSHQFQPSELIKYWNHLQQNKHNACVNAAKEKAGRYRHRKLH
# Key:
# Test in all cases: glycan array binding signal (z-score within array); higher = stronger binding
# Details in all cases: glycan notation: IUPAC condensed, linker removed
# [1] = target: GlcNAc(b1-3)Gal(b1-4)GlcNAc(b1-3)Gal(b1-4)GlcNAc(b1-2)Man(a1-3)[GlcNAc(b1-3)Gal(b1-4)GlcNAc(b1-3)Gal(b1-4)GlcNAc(b1-2)Man(a1-6)]Man(b1-4)GlcNAc(b1-4)[Fuc(a1-6)]GlcNAc
# Summary of the method: (§1)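 The binding signal is a Z-score computed within each array and averaged over linkers. Arrays of the same protein sequence at different concentrations or buffers were also averaged together. Data originate from 3228 arrays in the Consortium for Functional Glycomics database, kept only where the protein sequence was available.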
# [2] = target: GlcNAc(b1-3)Gal(b1-4)GlcNAc(b1-3)Gal(b1-4)GlcNAc(b1-2)[GlcNAc(b1-3)Gal(b1-4)GlcNAc(b1-3)Gal(b1-4)GlcNAc(b1-6)]Man(a1-6)[GlcNAc(b1-3)Gal(b1-4)GlcNAc(b1-3)Gal(b1-4)GlcNAc(b1-2)Man(a1-3)]Man(b1-4)GlcNAc(b1-4)[Fuc(a1-6)]GlcNAc
# Summary of the method: as §1
# [3] = target: GlcNAc(b1-3)Gal(b1-4)GlcNAc(b1-3)Gal(b1-4)GlcNAc(b1-3)Gal(b1-4)GlcNAc(b1-2)Man(a1-3)[GlcNAc(b1-3)Gal(b1-4)GlcNAc(b1-3)Gal(b1-4)GlcNAc(b1-3)Gal(b1-4)GlcNAc(b1-2)Man(a1-6)]Man(b1-4)GlcNAc(b1-4)GlcNAc
# Summary of the method: as §1
# [4] = target: GlcNAc(b1-3)Gal(b1-4)GlcNAc(b1-3)Gal(b1-4)GlcNAc(b1-3)Gal(b1-4)GlcNAc(b1-2)Man(a1-3)[GlcNAc(b1-3)Gal(b1-4)GlcNAc(b1-3)Gal(b1-4)GlcNAc(b1-3)Gal(b1-4)GlcNAc(b1-2)Man(a1-6)]Man(b1-4)GlcNAc(b1-4)[Fuc(a1-6)]GlcNAc
# Summary of the method: as §1
# [5] = target: GlcNAc(b1-3)Gal(b1-4)GlcNAc(b1-3)Gal(b1-4)GlcNAc(b1-3)Gal(b1-4)GlcNAc(b1-2)[GlcNAc(b1-3)Gal(b1-4)GlcNAc(b1-3)Gal(b1-4)GlcNAc(b1-3)Gal(b1-4)GlcNAc(b1-6)]Man(a1-6)[GlcNAc(b1-3)Gal(b1-4)GlcNAc(b1-3)Gal(b1-4)GlcNAc(b1-3)Gal(b1-4)GlcNAc(b1-2)Man(a1-3)]Man(b1-4)GlcNAc(b1-4)[Fuc(a1-6)]GlcNAc
# Summary of the method: as §1
# [6] = target: GlcNAc(b1-3)Gal(b1-4)GlcNAc(b1-3)Gal(b1-4)GlcNAc(b1-3)Gal(b1-4)GlcNAc(b1-3)Gal(b1-4)GlcNAc(b1-2)Man(a1-3)[GlcNAc(b1-3)Gal(b1-4)GlcNAc(b1-3)Gal(b1-4)GlcNAc(b1-3)Gal(b1-4)GlcNAc(b1-3)Gal(b1-4)GlcNAc(b1-2)Man(a1-6)]Man(b1-4)GlcNAc(b1-4)GlcNAc
# Summary of the method: as §1
# [7] = target: GlcNAc(b1-3)Gal(b1-4)GlcNAc(b1-3)Gal(b1-4)GlcNAc(b1-3)Gal(b1-4)GlcNAc(b1-3)Gal(b1-4)GlcNAc(b1-2)Man(a1-3)[GlcNAc(b1-3)Gal(b1-4)GlcNAc(b1-3)Gal(b1-4)GlcNAc(b1-3)Gal(b1-4)GlcNAc(b1-3)Gal(b1-4)GlcNAc(b1-2)Man(a1-6)]Man(b1-4)GlcNAc(b1-4)[Fuc(a1-6)]GlcNAc
# Summary of the method: as §1
# [8] = target: GlcNAc(b1-3)Gal(b1-4)GlcNAc(b1-3)Gal(b1-4)GlcNAc(b1-3)Gal(b1-4)GlcNAc(b1-3)Gal(b1-4)GlcNAc(b1-2)[GlcNAc(b1-3)Gal(b1-4)GlcNAc(b1-3)Gal(b1-4)GlcNAc(b1-3)Gal(b1-4)GlcNAc(b1-3)Gal(b1-4)GlcNAc(b1-6)]Man(a1-6)[GlcNAc(b1-3)Gal(b1-4)GlcNAc(b1-3)Gal(b1-4)GlcNAc(b1-3)Gal(b1-4)GlcNAc(b1-3)Gal(b1-4)GlcNAc(b1-2)Man(a1-3)]Man(b1-4)GlcNAc(b1-4)[Fuc(a1-6)]GlcNAc
# Summary of the method: as §1
# [9] = target: GlcNAc(b1-3)Gal(b1-4)GlcNAc(b1-3)Gal(b1-4)GlcNAc(b1-3)GalNAc
# Summary of the method: as §1
# [10] = target: GlcNAc(b1-3)Gal(b1-4)GlcNAc(b1-3)GalNAc
# Summary of the method: as §1
# [11] = target: GlcNAc(b1-3)Gal(b1-4)GlcNAc(b1-3)[GlcNAc(b1-3)Gal(b1-4)GlcNAc(b1-3)]GalNAc
# Summary of the method: as §1
# [12] = target: GlcNAc(b1-3)Gal(b1-4)GlcNAc(b1-6)[Gal(b1-3)]GalNAc
# Summary of the method: as §1
# [13] = target: GlcNAc(b1-3)Gal(b1-4)GlcNAc(b1-6)[GlcNAc(b1-3)Gal(b1-3)]GalNAc
# Summary of the method: as §1
# [14] = target: GlcNAc(b1-3)Gal(b1-4)GlcNAc(b1-6)[GlcNAc(b1-3)]Gal(b1-4)GlcNAc
# Summary of the method: as §1
# GlcNAc(b1-3)GalNAc = target: GlcNAc(b1-3)GalNAc
# Summary of the method: as §1
# GlcNAc(b1-3)Man = target: GlcNAc(b1-3)Man
# Summary of the method: as §1
# [15] = target: GlcNAc(b1-3)[GlcNAc(b1-4)][GlcNAc(b1-6)]GlcNAc
# Summary of the method: as §1
# [16] = target: GlcNAc(b1-3)[GlcNAc(b1-6)]Gal(b1-4)GlcNAc
# Summary of the method: as §1
# [17] = target: GlcNAc(b1-3)[GlcNAc(b1-6)]GalNAc
# Summary of the method: as §1
# [18] = target: GlcNAc(b1-4)Gal(b1-4)GlcNAc
# Summary of the method: as §1
# GlcNAc(b1-4)GlcNAc = target: GlcNAc(b1-4)GlcNAc
# Summary of the method: as §1
# [19] = target: GlcNAc(b1-4)GlcNAc(b1-4)GlcNAc
# Summary of the method: as §1
# [20] = target: GlcNAc(b1-4)GlcNAc(b1-4)GlcNAc(b1-4)GlcNAc(b1-4)GlcNAc
# Summary of the method: as §1
# [21] = target: GlcNAc(b1-4)GlcNAc(b1-4)GlcNAc(b1-4)GlcNAc(b1-4)GlcNAc(b1-4)GlcNAc
# Summary of the method: as §1
# [22] = target: GlcNAc(b1-4)[GlcNAc(b1-6)]GalNAc
# Summary of the method: as §1
# [23] = target: GlcNAc(b1-6)Gal(b1-4)GlcNAc
# Summary of the method: as §1
# GlcNAc(b1-6)GalNAc = target: GlcNAc(b1-6)GalNAc
# Summary of the method: as §1
# [24] = target: GlcNAc6S(b1-3)Gal(b1-4)GlcNAc
# Summary of the method: as §1
# Kdn(a2-3)Gal(b1-3)GalNAc = target: Kdn(a2-3)Gal(b1-3)GalNAc
# Summary of the method: as §1
# Kdn(a2-3)Gal(b1-3)GlcNAc = target: Kdn(a2-3)Gal(b1-3)GlcNAc
# Summary of the method: as §1
# Kdn(a2-3)Gal(b1-4)Glc = target: Kdn(a2-3)Gal(b1-4)Glc
# Summary of the method: as §1
# Kdn(a2-3)Gal(b1-4)GlcNAc = target: Kdn(a2-3)Gal(b1-4)GlcNAc
# Summary of the method: as §1
# [25] = target: Kdn(a2-3)Gal(b1-4)[Fuc(a1-3)]GlcNAc
# Summary of the method: as §1
# Kdn(a2-6)Gal(b1-4)GlcNAc = target: Kdn(a2-6)Gal(b1-4)GlcNAc
# Summary of the method: as §1
# [26] = target: Man(a1-2)Man(a1-2)Man(a1-3)Man
# Summary of the method: as §1
# [27] = target: Man(a1-2)Man(a1-2)Man(a1-6)[Man(a1-3)]Man
# Summary of the method: as §1
# Man(a1-2)Man(a1-3)Man = target: Man(a1-2)Man(a1-3)Man
# Summary of the method: as §1
# [28] = target: Man(a1-2)Man(a1-3)[Man(a1-2)Man(a1-6)]Man
# Summary of the method: as §1
binder,measurement,setting,value
B1,glycan array binding signal (z-score),[1],0.705
same,glycan array binding signal (z-score),[2],-0.891
same,glycan array binding signal (z-score),[3],-0.641
same,glycan array binding signal (z-score),[4],0.041
same,glycan array binding signal (z-score),[5],-1.03
same,glycan array binding signal (z-score),[6],0.448
same,glycan array binding signal (z-score),[7],0.499
same,glycan array binding signal (z-score),[8],-1.04
same,glycan array binding signal (z-score),[9],-1.03
same,glycan array binding signal (z-score),[10],0.966
same,glycan array binding signal (z-score),[11],-1.1
same,glycan array binding signal (z-score),[12],-0.371
same,glycan array binding signal (z-score),[13],-0.96
same,glycan array binding signal (z-score),[14],-0.836
same,glycan array binding signal (z-score),GlcNAc(b1-3)GalNAc,0.005
same,glycan array binding signal (z-score),GlcNAc(b1-3)Man,-0.341
same,glycan array binding signal (z-score),[15],-0.219
same,glycan array binding signal (z-score),[16],-0.284
same,glycan array binding signal (z-score),[17],0.347
same,glycan array binding signal (z-score),[18],-0.559
same,glycan array binding signal (z-score),GlcNAc(b1-4)GlcNAc,-0.423
same,glycan array binding signal (z-score),[19],-0.516
same,glycan array binding signal (z-score),[20],-0.992
same,glycan array binding signal (z-score),[21],-0.344
same,glycan array binding signal (z-score),[22],0.98
same,glycan array binding signal (z-score),[23],1.2
same,glycan array binding signal (z-score),GlcNAc(b1-6)GalNAc,0.289
same,glycan array binding signal (z-score),[24],-0.026
same,glycan array binding signal (z-score),Kdn(a2-3)Gal(b1-3)GalNAc,-0.311
same,glycan array binding signal (z-score),Kdn(a2-3)Gal(b1-3)GlcNAc,-0.242
same,glycan array binding signal (z-score),Kdn(a2-3)Gal(b1-4)Glc,-0.136
same,glycan array binding signal (z-score),Kdn(a2-3)Gal(b1-4)GlcNAc,2.76
same,glycan array binding signal (z-score),[25],-0.377
same,glycan array binding signal (z-score),Kdn(a2-6)Gal(b1-4)GlcNAc,0.561
same,glycan array binding signal (z-score),[26],1.06
same,glycan array binding signal (z-score),[27],-0.096
same,glycan array binding signal (z-score),Man(a1-2)Man(a1-3)Man,0.139
same,glycan array binding signal (z-score),[28],0.778

# Two entries picked at random from those above, as already listed:
binder,measurement,setting,value
B1,glycan array binding signal (z-score),[7],0.499
same,glycan array binding signal (z-score),GlcNAc(b1-4)GlcNAc,-0.423
